Measurements: US12109221B2, “Combination therapy for treating cancer” (LEUKOS BIOTECH, S.L., priority 2017, dated 2024)
Some entries share one result that the patent states for a list of compounds.

Tested on: MonoMac-1 AML cells
Experiment: In vivo xenotransplantation assay, human AML cells in bones by flow cytometry
Parameters: species or system NSG mice
Conditions: 5 mg/kg apomorphine and 30 mg/kg cytarabine, intraperitoneally, 5 days
Description: FIG. 4. […] Bulsulfan-conditioned NSG adult mice were intravenously injected with 1×10^6 MonoMac-1 AML cells. One week after transplantation, mice were treated with 5 mg/kg apomorphine (APO) and/or 30 mg/kg cytarabine (CYT) daily for 5 days. Mice were culled and bones were harvested. Human leukemia cells were detected based on the expression of hCD45 on the surface membrane by flow cytometry. Normalized number of human AML cells against control-treated mice is represented. Bars correspond to mean values and error bars to SEM. ** p<0.01; **** p<0.0001. hAML: #human AML cells (referred to 15 control). CTR: Control.
In order to verify that the synergic cytotoxic effect was also detectable in vivo, pharmacological-conditioned NSG mice were transplanted intravenously with 1×10^6 MonoMac-1 AML cells. One week after transplantation, mice were treated for 5 days with 5 mg/kg apomorphine and/or 30 mg/kg cytarabine, both of them intraperitoneally. Mice were culled and bones were harvested and analyzed for human leukemia by flow cytometry.

SMILES	EOBA [%]
CN1CCc2cccc3c2[C@H]1Cc1ccc(O)c(O)c1-3 [apomorphine, (6aR)-6-methyl-5,6,6a, 7-tetrahydro-4H-dibenzo[de, g]quinoline-10,11-diol]	> 25
Nc1ccn([C@@H]2O[C@H](CO)[C@H](O)[C@@H]2O)c(=O)n1 [Ara-C, 4-amino-1-[(2R,3S,4R,5R)-3,4-dihydroxy-5 (hydroxymethyl)oxolan-2-yl]pyrimidin-2-one]	> 25
